{"source": "patent US5359135A", "about": "“Triasulfurone compounds” (priority 1990, dated 1994)", "parameters_in_all_cases": "species or system mouse (Balb/c)", "key": {"MAb 4149-1-1": {"system": "MAb 4149-1-1", "experiment": "ELISA determination of triasulfurone added to soil extracts, MAb 4149-1-1 (Table 2)", "settings": "Method A"}, "MAb 4147-19-4 [1]": {"system": "MAb 4147-19-4", "experiment": "ELISA determination of triasulfurone added to soil extracts, MAb 4147-19-4 (Table 2)", "settings": "Method A"}, "MAb 4147-19-4 [2]": {"system": "MAb 4147-19-4", "experiment": "recovery of triasulfurone from enriched soil samples, MAb 4147-19-4 (Table 4)", "settings": "Method C"}, "MAb 4147-19-4 [3]": {"system": "MAb 4147-19-4", "experiment": "soil-matrix effect, comparison of extraction methods, MAb 4147-19-4 (Table 3)"}, "[4]": {"settings": "Collombey soil extract, 1 ppb added"}, "[5]": {"settings": "Les Evouettes soil extract, 1 ppb added"}, "[6]": {"settings": "Speyer soil extract, 10 ppb added (so in the source)"}, "[7]": {"settings": "Stein soil extract, 0.1 ppb added"}, "[8]": {"settings": "Stein soil extract, 0.3 ppb added"}, "[9]": {"settings": "Stein soil extract, 1 ppb added"}, "[10]": {"settings": "Vetroz soil extract, 0.1 ppb added"}, "[11]": {"settings": "Vetroz soil extract, 0.3 ppb added"}, "[12]": {"settings": "Vetroz soil extract, 1 ppb added"}, "[13]": {"settings": "Vetroz (Expt. 2), 0.1 ppb added"}, "[14]": {"settings": "Vetroz (Expt. 2), 0.3 ppb added"}}}
{"compound": "COc1nc(C)nc(NC(=O)NS(=O)(=O)c2ccccc2OCCCl)n1", "note": "[triasulfurone, 3-(6-methoxy-4-methyl-1,3,5-triazin-2-yl)-1-[2-(2-chloroethoxy)-phenylsulfonyl]-urea]", "values": [{"measurement": "triasulfurone found", "setting": "MAb 4149-1-1; [4]", "result": 98, "unit": "%"}, {"measurement": "triasulfurone measured", "setting": "MAb 4149-1-1; [4]", "result": 1.04, "unit": "ppb"}, {"measurement": "triasulfurone found", "setting": "MAb 4149-1-1; [5]", "result": 89, "unit": "%"}, {"measurement": "triasulfurone measured", "setting": "MAb 4149-1-1; [5]", "result": 1.00, "unit": "ppb"}, {"measurement": "triasulfurone found", "setting": "MAb 4149-1-1; [6]", "result": 88, "unit": "%"}, {"measurement": "triasulfurone measured", "setting": "MAb 4149-1-1; [6]", "result": 0.95, "unit": "ppb"}, {"measurement": "triasulfurone found", "setting": "MAb 4149-1-1; [7]", "result": 130, "unit": "%"}, {"measurement": "triasulfurone measured", "setting": "MAb 4149-1-1; [7]", "result": 0.20, "unit": "ppb"}, {"measurement": "triasulfurone found", "setting": "MAb 4149-1-1; [8]", "result": 107, "unit": "%"}, {"measurement": "triasulfurone measured", "setting": "MAb 4149-1-1; [8]", "result": 0.39, "unit": "ppb"}, {"measurement": "triasulfurone found", "setting": "MAb 4149-1-1; [9]", "result": 97, "unit": "%"}, {"measurement": "triasulfurone measured", "setting": "MAb 4149-1-1; [9]", "result": 1.04, "unit": "ppb"}, {"measurement": "triasulfurone found", "setting": "MAb 4149-1-1; [10]", "result": 60, "unit": "%"}, {"measurement": "triasulfurone measured", "setting": "MAb 4149-1-1; [10]", "result": 0.23, "unit": "ppb"}, {"measurement": "triasulfurone found", "setting": "MAb 4149-1-1; [11]", "result": 100, "unit": "%"}, {"measurement": "triasulfurone measured", "setting": "MAb 4149-1-1; [11]", "result": 0.47, "unit": "ppb"}, {"measurement": "triasulfurone found", "setting": "MAb 4149-1-1; [12]", "result": 93, "unit": "%"}, {"measurement": "triasulfurone measured", "setting": "MAb 4149-1-1; [12]", "result": 1.10, "unit": "ppb"}, {"measurement": "triasulfurone found", "setting": "MAb 4147-19-4 [1]; [4]", "result": 99, "unit": "%"}, {"measurement": "triasulfurone measured", "setting": "MAb 4147-19-4 [1]; [4]", "result": 1.08, "unit": "ppb"}, {"measurement": "triasulfurone found", "setting": "MAb 4147-19-4 [1]; [5]", "result": 81, "unit": "%"}, {"measurement": "triasulfurone measured", "setting": "MAb 4147-19-4 [1]; [5]", "result": 0.91, "unit": "ppb"}, {"measurement": "triasulfurone found", "setting": "MAb 4147-19-4 [1]; [6]", "result": 99, "unit": "%"}, {"measurement": "triasulfurone measured", "setting": "MAb 4147-19-4 [1]; [6]", "result": 1.03, "unit": "ppb"}, {"measurement": "triasulfurone found", "setting": "MAb 4147-19-4 [1]; [7]", "result": 70, "unit": "%"}, {"measurement": "triasulfurone measured", "setting": "MAb 4147-19-4 [1]; [7]", "result": 0.13, "unit": "ppb"}, {"measurement": "triasulfurone found", "setting": "MAb 4147-19-4 [1]; [8]", "result": 110, "unit": "%"}, {"measurement": "triasulfurone measured", "setting": "MAb 4147-19-4 [1]; [8]", "result": 0.39, "unit": "ppb"}, {"measurement": "triasulfurone found", "setting": "MAb 4147-19-4 [1]; [9]", "result": 108, "unit": "%"}, {"measurement": "triasulfurone measured", "setting": "MAb 4147-19-4 [1]; [9]", "result": 1.14, "unit": "ppb"}, {"measurement": "triasulfurone found", "setting": "MAb 4147-19-4 [1]; [10]", "result": 90, "unit": "%"}, {"measurement": "triasulfurone measured", "setting": "MAb 4147-19-4 [1]; [10]", "result": 0.26, "unit": "ppb"}, {"measurement": "triasulfurone found", "setting": "MAb 4147-19-4 [1]; [11]", "result": 90, "unit": "%"}, {"measurement": "triasulfurone measured", "setting": "MAb 4147-19-4 [1]; [11]", "result": 0.44, "unit": "ppb"}, {"measurement": "triasulfurone found", "setting": "MAb 4147-19-4 [1]; [12]", "result": 94, "unit": "%"}, {"measurement": "triasulfurone measured", "setting": "MAb 4147-19-4 [1]; [12]", "result": 1.11, "unit": "ppb"}, {"measurement": "triasulfurone found", "setting": "MAb 4147-19-4 [2]; Les Evouettes, 0.5 ppb added", "result": 0.37, "unit": "ppb"}, {"measurement": "triasulfurone found (%)", "setting": "MAb 4147-19-4 [2]; Les Evouettes, 0.5 ppb added", "result": 62, "unit": "%"}, {"measurement": "triasulfurone found", "setting": "MAb 4147-19-4 [2]; Les Evouettes, 1 ppb added", "result": 0.71, "unit": "ppb"}, {"measurement": "triasulfurone found (%)", "setting": "MAb 4147-19-4 [2]; Les Evouettes, 1 ppb added", "result": 65, "unit": "%"}, {"measurement": "triasulfurone found", "setting": "MAb 4147-19-4 [2]; Les Evouettes, 10 ppb added", "result": 7.41, "unit": "ppb"}, {"measurement": "triasulfurone found (%)", "setting": "MAb 4147-19-4 [2]; Les Evouettes, 10 ppb added", "result": 74, "unit": "%"}, {"measurement": "triasulfurone found", "setting": "MAb 4147-19-4 [2]; Stein, 0.1 ppb added", "result": 0.12, "unit": "ppb"}, {"measurement": "triasulfurone found (%)", "setting": "MAb 4147-19-4 [2]; Stein, 0.1 ppb added", "result": 110, "unit": "%"}, {"measurement": "triasulfurone found", "setting": "MAb 4147-19-4 [2]; Stein, 0.3 ppb added", "result": 0.25, "unit": "ppb"}, {"measurement": "triasulfurone found (%)", "setting": "MAb 4147-19-4 [2]; Stein, 0.3 ppb added", "result": 80, "unit": "%"}, {"measurement": "triasulfurone found", "setting": "MAb 4147-19-4 [2]; Stein, 1 ppb added", "result": 0.63, "unit": "ppb"}, {"measurement": "triasulfurone found (%)", "setting": "MAb 4147-19-4 [2]; Stein, 1 ppb added", "result": 62, "unit": "%"}, {"measurement": "triasulfurone found", "setting": "MAb 4147-19-4 [2]; [13]", "result": 0.19, "unit": "ppb"}, {"measurement": "triasulfurone found (%)", "setting": "MAb 4147-19-4 [2]; [13]", "result": 120, "unit": "%"}, {"measurement": "triasulfurone found", "setting": "MAb 4147-19-4 [2]; [14]", "result": 0.31, "unit": "ppb"}, {"measurement": "triasulfurone found (%)", "setting": "MAb 4147-19-4 [2]; [14]", "result": 80, "unit": "%"}, {"measurement": "triasulfurone found", "setting": "MAb 4147-19-4 [2]; Vetroz (Expt. 2), 1 ppb added", "result": 0.60, "unit": "ppb"}, {"measurement": "triasulfurone found (%)", "setting": "MAb 4147-19-4 [2]; Vetroz (Expt. 2), 1 ppb added", "result": 53, "unit": "%"}, {"measurement": "triasulfurone found", "setting": "MAb 4147-19-4 [2]; Vetroz, 0.1 ppb added", "result": 0.14, "unit": "ppb"}, {"measurement": "triasulfurone found (%)", "setting": "MAb 4147-19-4 [2]; Vetroz, 0.1 ppb added", "result": 120, "unit": "%"}, {"measurement": "triasulfurone found", "setting": "MAb 4147-19-4 [2]; Vetroz, 0.5 ppb added", "result": 0.34, "unit": "ppb"}, {"measurement": "triasulfurone found (%)", "setting": "MAb 4147-19-4 [2]; Vetroz, 0.5 ppb added", "result": 64, "unit": "%"}, {"measurement": "triasulfurone found", "setting": "MAb 4147-19-4 [2]; Vetroz, 1 ppb added", "result": 0.68, "unit": "ppb"}, {"measurement": "triasulfurone found (%)", "setting": "MAb 4147-19-4 [2]; Vetroz, 1 ppb added", "result": 66, "unit": "%"}, {"measurement": "triasulfurone found", "setting": "MAb 4147-19-4 [2]; Vetroz, 10 ppb added", "result": 6.60, "unit": "ppb"}, {"measurement": "triasulfurone found (%)", "setting": "MAb 4147-19-4 [2]; Vetroz, 10 ppb added", "result": 66, "unit": "%"}, {"measurement": "triasulfurone measured", "setting": "MAb 4147-19-4 [3]; Collombey, extraction method A", "result": 0.09, "unit": "ppb"}, {"measurement": "triasulfurone measured", "setting": "MAb 4147-19-4 [3]; Collombey, extraction method C", "result": 0.03, "unit": "ppb"}, {"measurement": "triasulfurone measured", "setting": "MAb 4147-19-4 [3]; Les Evouettes, extraction method A", "result": 0.10, "unit": "ppb"}, {"measurement": "triasulfurone measured", "setting": "MAb 4147-19-4 [3]; Les Evouettes, extraction method B", "result": 0.02, "unit": "ppb"}, {"measurement": "triasulfurone measured", "setting": "MAb 4147-19-4 [3]; Les Evouettes, extraction method C (Expt. 1)", "result": 0.06, "unit": "ppb"}, {"measurement": "triasulfurone measured", "setting": "MAb 4147-19-4 [3]; Les Evouettes, extraction method C (Expt. 2)", "result": 0.07, "unit": "ppb"}, {"measurement": "triasulfurone measured", "setting": "MAb 4147-19-4 [3]; Speyer, extraction method A", "result": 0.04, "unit": "ppb"}, {"measurement": "triasulfurone measured", "setting": "MAb 4147-19-4 [3]; Speyer, extraction method C", "result": 0.02, "unit": "ppb"}, {"measurement": "triasulfurone measured", "setting": "MAb 4147-19-4 [3]; Stein, extraction method A", "result": 0.06, "unit": "ppb"}, {"measurement": "triasulfurone measured", "setting": "MAb 4147-19-4 [3]; Stein, extraction method C", "result": 0.01, "unit": "ppb"}, {"measurement": "triasulfurone measured", "setting": "MAb 4147-19-4 [3]; Vetroz, extraction method A", "result": 0.17, "unit": "ppb"}, {"measurement": "triasulfurone measured", "setting": "MAb 4147-19-4 [3]; Vetroz, extraction method B", "result": 0.03, "unit": "ppb"}, {"measurement": "triasulfurone measured", "setting": "MAb 4147-19-4 [3]; Vetroz, extraction method C (Expt. 1)", "result": 0.02, "unit": "ppb"}, {"measurement": "triasulfurone measured", "setting": "MAb 4147-19-4 [3]; Vetroz, extraction method C (Expt. 2)", "result": 0.07, "unit": "ppb"}]}
